Test results from publication PMC6525466.
Results are given in words; binding and its absence hold for the method and conditions named. In cells and extracts the contact can be indirect.

Protein sequences, listed by entry. Tags and fused reporters are not part of them.
UniProt O95863: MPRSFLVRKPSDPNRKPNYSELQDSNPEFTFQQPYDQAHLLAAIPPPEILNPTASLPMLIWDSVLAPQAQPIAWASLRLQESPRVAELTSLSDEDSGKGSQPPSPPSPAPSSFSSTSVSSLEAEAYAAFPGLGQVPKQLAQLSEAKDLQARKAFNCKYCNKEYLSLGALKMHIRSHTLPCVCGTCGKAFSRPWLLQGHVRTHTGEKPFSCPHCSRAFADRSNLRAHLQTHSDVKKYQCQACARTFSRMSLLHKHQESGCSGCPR
UniProt P08047: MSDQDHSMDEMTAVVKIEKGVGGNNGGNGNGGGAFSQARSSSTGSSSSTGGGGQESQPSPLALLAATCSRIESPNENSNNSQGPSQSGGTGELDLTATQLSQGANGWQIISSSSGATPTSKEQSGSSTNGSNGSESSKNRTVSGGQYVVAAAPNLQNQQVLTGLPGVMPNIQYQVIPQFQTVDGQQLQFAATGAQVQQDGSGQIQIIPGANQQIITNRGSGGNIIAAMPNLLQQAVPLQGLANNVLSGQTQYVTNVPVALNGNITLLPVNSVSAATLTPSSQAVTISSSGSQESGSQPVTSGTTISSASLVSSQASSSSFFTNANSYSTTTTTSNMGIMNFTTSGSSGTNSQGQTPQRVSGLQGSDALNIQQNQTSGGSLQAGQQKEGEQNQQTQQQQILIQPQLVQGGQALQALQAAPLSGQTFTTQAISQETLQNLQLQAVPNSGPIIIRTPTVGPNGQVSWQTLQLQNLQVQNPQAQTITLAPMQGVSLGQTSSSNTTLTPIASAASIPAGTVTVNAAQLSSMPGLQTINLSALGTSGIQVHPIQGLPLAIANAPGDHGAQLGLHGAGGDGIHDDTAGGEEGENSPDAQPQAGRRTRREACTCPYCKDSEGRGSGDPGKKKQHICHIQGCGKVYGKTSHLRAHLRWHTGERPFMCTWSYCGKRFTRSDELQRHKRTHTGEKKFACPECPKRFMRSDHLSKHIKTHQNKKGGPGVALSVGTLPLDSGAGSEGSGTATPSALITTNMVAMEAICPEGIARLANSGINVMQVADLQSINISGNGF

Biological target: HA-Snail (UniProt O95863)
Experiment: co-IP; Myc-Ajuba, Flag-SP1 and HA-Snail expressed alone or in combination in 293T cells; co-IP with anti-HA or anti-Flag antibodies

For Flag-SP1 (from UniProt P08047 1-785), the binding was “no binding”.
